Laboratory results as given in paper PMC6060233.
No constants are given. Whether binding was seen depends on the method and setting. Binding seen in cells or lysates may run through a third protein. Some results given as binding are weak or reduced against the parent protein; the word gives no strength.

Sequences of proteins named here, by UniProt entry; tags and fusion partners are left off.
UniProt Q96SB3: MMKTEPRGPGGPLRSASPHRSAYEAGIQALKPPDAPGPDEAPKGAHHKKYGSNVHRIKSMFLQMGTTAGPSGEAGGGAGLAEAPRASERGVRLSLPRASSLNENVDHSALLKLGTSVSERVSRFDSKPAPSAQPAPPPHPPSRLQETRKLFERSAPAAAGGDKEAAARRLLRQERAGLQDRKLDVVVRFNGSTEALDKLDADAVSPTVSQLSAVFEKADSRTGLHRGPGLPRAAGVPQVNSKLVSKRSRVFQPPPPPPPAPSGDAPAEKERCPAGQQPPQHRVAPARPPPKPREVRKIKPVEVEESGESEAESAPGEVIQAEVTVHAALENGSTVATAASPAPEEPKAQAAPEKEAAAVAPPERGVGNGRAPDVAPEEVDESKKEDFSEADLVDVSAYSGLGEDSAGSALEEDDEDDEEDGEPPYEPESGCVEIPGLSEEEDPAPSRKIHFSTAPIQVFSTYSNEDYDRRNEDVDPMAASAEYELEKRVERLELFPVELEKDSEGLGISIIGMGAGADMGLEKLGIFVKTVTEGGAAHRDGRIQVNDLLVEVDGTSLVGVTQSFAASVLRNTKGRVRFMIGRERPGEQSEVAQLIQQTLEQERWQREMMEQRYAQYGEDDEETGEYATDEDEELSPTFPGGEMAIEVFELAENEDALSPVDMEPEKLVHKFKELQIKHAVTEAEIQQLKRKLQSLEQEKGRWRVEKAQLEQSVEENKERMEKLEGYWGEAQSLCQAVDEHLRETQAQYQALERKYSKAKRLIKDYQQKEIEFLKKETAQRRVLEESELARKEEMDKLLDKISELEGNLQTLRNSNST

T1: Anion exchanger 2 (UniProt P04920)
T1 sequence: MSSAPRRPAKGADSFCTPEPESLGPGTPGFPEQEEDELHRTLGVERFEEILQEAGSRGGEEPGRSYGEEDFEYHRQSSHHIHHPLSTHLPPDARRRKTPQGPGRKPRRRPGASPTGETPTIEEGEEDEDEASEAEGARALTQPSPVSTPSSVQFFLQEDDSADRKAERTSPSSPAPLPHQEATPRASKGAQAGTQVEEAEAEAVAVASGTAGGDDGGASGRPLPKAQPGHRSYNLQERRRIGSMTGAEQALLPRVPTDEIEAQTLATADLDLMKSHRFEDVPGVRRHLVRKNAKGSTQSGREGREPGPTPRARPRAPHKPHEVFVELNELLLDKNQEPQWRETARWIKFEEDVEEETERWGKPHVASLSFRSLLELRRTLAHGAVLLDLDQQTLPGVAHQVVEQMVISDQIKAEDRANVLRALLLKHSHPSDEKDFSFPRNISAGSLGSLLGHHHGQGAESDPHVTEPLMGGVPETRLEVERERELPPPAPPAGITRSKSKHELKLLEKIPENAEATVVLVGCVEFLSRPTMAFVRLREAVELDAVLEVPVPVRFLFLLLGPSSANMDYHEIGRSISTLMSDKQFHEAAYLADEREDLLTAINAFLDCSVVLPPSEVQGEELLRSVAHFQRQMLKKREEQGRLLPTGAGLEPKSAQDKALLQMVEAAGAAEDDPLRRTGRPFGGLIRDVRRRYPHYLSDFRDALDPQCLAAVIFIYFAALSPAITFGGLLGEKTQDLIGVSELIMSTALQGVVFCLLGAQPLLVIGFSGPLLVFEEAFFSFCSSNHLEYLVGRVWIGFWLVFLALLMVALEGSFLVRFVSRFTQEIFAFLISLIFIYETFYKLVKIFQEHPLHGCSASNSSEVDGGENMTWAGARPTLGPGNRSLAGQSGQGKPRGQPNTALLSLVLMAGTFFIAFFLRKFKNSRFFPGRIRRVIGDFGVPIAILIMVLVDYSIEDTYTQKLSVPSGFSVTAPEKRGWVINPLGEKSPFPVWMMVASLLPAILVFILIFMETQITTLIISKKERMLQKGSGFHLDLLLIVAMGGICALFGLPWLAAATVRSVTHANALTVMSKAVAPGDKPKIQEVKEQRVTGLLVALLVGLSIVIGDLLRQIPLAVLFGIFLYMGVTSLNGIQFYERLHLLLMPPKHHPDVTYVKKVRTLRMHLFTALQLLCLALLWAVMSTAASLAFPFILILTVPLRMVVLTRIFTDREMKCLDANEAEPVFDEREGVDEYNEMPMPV


Tests used:
[1] = target: T1, Anion exchanger 2; assay: co-IP; HEK293T cells transfected with the indicated plasmids; lysis buffer 20 mM Tris, 150 mM NaCl, 2 mM EDTA, 1% Triton X-100; 1 ug/mL antibody 16 h at 4°C, protein G agarose beads; western blot; cells with or without BAPTA-AM (10 uM, 1 h) or nocodazole (10 uM, 1 h)
[2] = target: Spinophilin (UniProt Q96SB3); assay: co-IP; Supplementary Figures S2B,C; transfected cells, cell line not stated; input blots as loading control

| binding [1] | binding [2] | Molecule |
| --- | --- | --- |
| binds |  | Spinophilin (from UniProt Q96SB3 1-817) |
|  | no binding | NKCC1 (protein, UniProt P55011 1-1212) MEPRPTAPSSGAPGLAGVGETPSAAALAAARVELPGTAVPSVPEDAAPASRDGGGVRDEGPAAAGDGLGRPLGPTPSQSRFQVDLVSENAGRAAAAAAAAAAAAAAAGAGAGAKQTPADGEASGESEPAKGSEEAKGRFRVNFVDPAASSSAEDSLSDAAGVGVDGPNVSFQNGGDTVLSEGSSLHSGGGGGSGHHQHYYYDTHTNTYYLRTFGHNTMDAVPRIDHYRHTAAQLGEKLLRPSLAELHDELEKEPFEDGFANGEESTPTRDAVVTYTAESKGVVKFGWIKGVLVRCMLNIWGVMLFIRLSWIVGQAGIGLSVLVIMMATVVTTITGLSTSAIATNGFVRGGGAYYLISRSLGPEFGGAIGLIFAFANAVAVAMYVVGFAETVVELLKEHSILMIDEINDIRIIGAITVVILLGISVAGMEWEAKAQIVLLVILLLAIGDFVIGTFIPLESKKPKGFFGYKSEIFNENFGPDFREEETFFSVFAIFFPAATGILAGANISGDLADPQSAIPKGTLLAILITTLVYVGIAVSVGSCVVRDATGNVNDTIVTELTNCTSAACKLNFDFSSCESSPCSYGLMNNFQVMSMVSGFTPLISAGIFSATLSSALASLVSAPKIFQALCKDNIYPAFQMFAKGYGKNNEPLRGYILTFLIALGFILIAELNVIAPIISNFFLASYALINFSVFHASLAKSPGWRPAFKYYNMWISLLGAILCCIVMFVINWWAALLTYVIVLGLYIYVTYKKPDVNWGSSTQALTYLNALQHSIRLSGVEDHVKNFRPQCLVMTGAPNSRPALLHLVHDFTKNVGLMICGHVHMGPRRQAMKEMSIDQAKYQRWLIKNKMKAFYAPVHADDLREGAQYLMQAAGLGRMKPNTLVLGFKKDWLQADMRDVDMYINLFHDAFDIQYGVVVIRLKEGLDISHLQGQEELLSSQEKSPGTKDVVVSVEYSKKSDLDTSKPLSEKPITHKVEEEDGKTATQPLLKKESKGPIVPLNVADQKLLEASTQFQKKQGKNTIDVWWLFDDGGLTLLIPYLLTTKKKWKDCKIRVFIGGKINRIDHDRRAMATLLSKFRIDFSDIMVLGDINTKPKKENIIAFEEIIEPYRLHEDDKEQDIADKMKEDEPWRITDNELELYKTKTYRQIRLNELLKEHSSTANIIVMSLPVARKGAVSSALYMAWLEALSKDLPPILLVRGNHQSVLTFYS |
|  | no binding | NBCe1-B (protein, UniProt Q9Y6R1 1-1079) MEDEAVLDRGASFLKHVCDEEEVEGHHTIYIGVHVPKSYRRRRRHKRKTGHKEKKEKERISENYSDKSDIENADESSSSILKPLISPAAERIRFILGEEDDSPAPPQLFTELDELLAVDGQEMEWKETARWIKFEEKVEQGGERWSKPHVATLSLHSLFELRTCMEKGSIMLDREASSLPQLVEMIVDHQIETGLLKPELKDKVTYTLLRKHRHQTKKSNLRSLADIGKTVSSASRMFTNPDNGSPAMTHRNLTSSSLNDISDKPEKDQLKNKFMKKLPRDAEASNVLVGEVDFLDTPFIAFVRLQQAVMLGALTEVPVPTRFLFILLGPKGKAKSYHEIGRAIATLMSDEVFHDIAYKAKDRHDLIAGIDEFLDEVIVLPPGEWDPAIRIEPPKSLPSSDKRKNMYSGGENVQMNGDTPHDGGHGGGGHGDCEELQRTGRFCGGLIKDIKRKAPFFASDFYDALNIQALSAILFIYLATVTNAITFGGLLGDATDNMQGVLESFLGTAVSGAIFCLFAGQPLTILSSTGPVLVFERLLFNFSKDNNFDYLEFRLWIGLWSAFLCLILVATDASFLVQYFTRFTEEGFSSLISFIFIYDAFKKMIKLADYYPINSNFKVGYNTLFSCTCVPPDPANISISNDTTLAPEYLPTMSSTDMYHNTTFDWAFLSKKECSKYGGNLVGNNCNFVPDITLMSFILFLGTYTSSMALKKFKTSPYFPTTARKLISDFAIILSILIFCVIDALVGVDTPKLIVPSEFKPTSPNRGWFVPPFGENPWWVCLAAAIPALLVTILIFMDQQITAVIVNRKEHKLKKGAGYHLDLFWVAILMVICSLMALPWYVAATVISIAHIDSLKMETETSAPGEQPKFLGVREQRVTGTLVFILTGLSVFMAPILKFIPMPVLYGVFLYMGVASLNGVQFMDRLKLLLMPLKHQPDFIYLRHVPLRRVHLFTFLQVLCLALLWILKSTVAAIIFPVMILALVAVRKGMDYLFSQHDLSFLDDVIPEKDKKKKEDEKKKKKKKGSLDSDNDDSDCPYSEKVPSIKIPMDIMEQQPFLSDSKPSDRERSPTFLERHTSC |
